For three molecules, binding results are on record in WO2017222556A2 (dated 2017).

Protein sequences, listed by entry. Tags and fused reporters are not part of them. Residues count along the entry.
UniProt P26718, residues 78-216: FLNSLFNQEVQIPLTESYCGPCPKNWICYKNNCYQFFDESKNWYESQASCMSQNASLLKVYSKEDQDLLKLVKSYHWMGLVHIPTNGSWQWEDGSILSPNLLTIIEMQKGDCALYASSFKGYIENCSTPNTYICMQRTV

Substitutions are numbered along the chain they refer to. No constants are given. Whether binding was seen depends on the method and setting. Some binding calls cover weakened binding; strength is not graded here. For some of these results: Sequences can lack the tags named with a protein.

In one assay the target is T1, mouse NKG2D-Fc (mouse) (UniProt O54709).
T1 sequence (looked up): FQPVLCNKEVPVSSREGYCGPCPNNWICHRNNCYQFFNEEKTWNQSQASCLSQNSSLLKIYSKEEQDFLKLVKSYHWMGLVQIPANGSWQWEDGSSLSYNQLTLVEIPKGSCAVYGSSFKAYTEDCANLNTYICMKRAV
Nature of the assay: competition ELISA: inhibition of mouse NKG2D-Fc binding to plate-coated MICA. A general note: ELISA stands for enzyme-linked immunosorbent assay.

Assay [1] concerns the target human NKG2D-Fc (human) (UniProt P26718). Nature of the assay: competition ELISA: inhibition of human NKG2D-Fc binding to plate-coated MICA.
The target is the same in assay [2]. Nature of the assay: competition ELISA: inhibition of human NKG2D-Fc binding to plate-coated WT sMICA.
The target in assay [3] is biotinylated human NKG2D (human) (UniProt P26718). Description: biolayer interferometry (Octet), surface-coated biotinylated human NKG2D, titration 1-100 nM. (In BLI a coated tip is dipped into the sample, and binding shifts an interference pattern.)

B1: al-a2 variant 17 (ligand)
chain: EPHSLRYNLTVLSWDGSVQSGFLTEVHLDGQPFLRCDRQKCRAKPQGQWAEDVLGNKTWDRETRDLTLWGKDLRMTLAHIKDQKEGLHSLQEIRVCEIHEDNSTRSSQHFYYDGELFLSQNLETLEWTMPQSSRAQTLAMNVRNFLKEDAMETDTHYHAMRADCLQELRRYLKSGVVLRRTVPPMVQVTRSEASGGSGDRVTITCRASQDVSTAVAWYQQKPGKAPKLLIYSASFLYSGVPSRFSGSGSGTDFTLTISSLQPEDFATYYCQQSYTTPPTFGQGTKVEIKGGSSRSSSSGGGGSGGGGEVQLVESGGGLVQPGGSLRLSCAASGFTFTSTGISWVRQAPGKGLEWVGRIYPTNGSTNYADSVKGRFTISADTSKNTAYLQMNSLRAEDTAVYYCARTYGIYDLYVDYTEYVMDYWGQGTLVTVSSGGSSRSSSSGGGGSGGGGDIQMTQSPSSLSASGGSGQITVTCRASGFYPWNITLSWRQDGVSLSHDTQQWGDVLPDGQGTYQTWVATRISQGEEQRFTCYMEHSGQHSTHPVPSGKGSHHHHHH
With B1, the binding entry with mouse NKG2D-Fc (mouse), in the assay with human NKG2D-Fc (human) [1] and in the assay with human NKG2D-Fc (human) [2] was “binds” throughout.

B2: al-a2 variant 20 (ligand)
chain: B1 chain with L68A, E152Q, H158R, R161H, Q166F
Regarding B2, the binding result in assay [3] is given as “binds”.

B3: al-a2 variant 18 (ligand)
chain: B1 chain with S20P
On to B3, for which the binding entry in the assay with mouse NKG2D-Fc (mouse), with human NKG2D-Fc (human) [1] and in the assay with human NKG2D-Fc (human) [2] was “binds” each time.
